# Out of some 53,000 sequences screened, about 3,700 (7%) were called active.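 The calls were made as follows: active = gene knockdowns whose robust z-score for IL-1 alpha signal is at least 2 or at most -2, so actives lie on both sides; inactive = the rest.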 The list shows a part of the results.
# Assay: Components of the Cytosolic LPS Sensing Pathway: Gene Identification via Genome-wide siRNA Screen;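 also: robust z of the log signal after scaling to non-targeting control siRNA wells of the plate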
# Conditions: RAW264.7 macrophages, IL-1a HTRF, actives lie on both sides, screened at 100 nM (by protocol), cells primed 5 h with Pam3CSK4 first
# Method in brief: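 Knockdown: 100 nM siRNA, 48h, RAW264.7. Stimulation: Pam3CSK4 5 h, then LipidA via TransIT-TKO 24 h. Output: supernatant IL-1a HTRF, negative-control-normalized, log robust z-score; viability by CellTiter-Glo.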
row,Sequence,z-score
1,GGAUUUUUGAUGAUGUGUCTT against Arfgap1,inactive: -0.795
2,GGCAGAACCCACUGAGAAATT against Pakap,inactive: -0.349
3,GGGUAGAAGAAAACGAUUUTT against Atxn7,inactive: 0.533
4,CCAAUUGGAAUCCCAUUUUTT against Cd47,inactive: -0.273
5,GGUGAACAGAUCGCCAUCATT against Ikbkb,inactive: -0.273
6,GGUUUUCUAGUUUGAGUUUTT against Atp1b2,inactive: 1.29
7,CCGGGUCAAGUUGGUCAACTT against Ascl1,inactive: 0.407
8,GGAAAAAGAUGGAAGAAUUTT against Thoc1,inactive: -1.1
9,GGUAUAUGGCCAUUAUCGATT against Tacr3,inactive: -0.614
10,CGCGCAGAUGCACCAGAUUTT against 2610028H24Rik,inactive: 1.12
11,CCUUUUAUCACAUUCGGAGTT against Rnf133,inactive: 0.141
12,GCAUGGUAGUUCUUUAGCATT against Xcr1,inactive: -0.173
13,CGAGUCAAGUGUGUGAACGTT against Ascl3,inactive: -0.067
14,GGAGGAGUUGCACCUCAUCTT against Cdk18,inactive: -0.675
15,CCCACUAUCAACACUGGUATT against Gm609,inactive: -0.0123
16,GCCAAUAGCAUCUGUGGACTT against Olfr566,inactive: -1.85
17,GGUCCUGAAAAAAGUGAUUTT against Eri1,inactive: -0.0192
18,CAAAGCAUGUAACAUCCAATT against Cfhr2,inactive: 0.591
19,AAUCUAUUAGGUUAGAGGATT against 9630041A04Rik,inactive: 0.697
20,GGCUUUGCACUCAGCGUACTT against Inpp5k,inactive: -0.824
21,AAAGAAACUAGAGAGAGCATT against LOC434320,inactive: 0.327
22,ACUCCUUCCGAGUUGUUGGTT against Vasp,inactive: -0.345

row,Sequence,z-score
1,GGAACAGAGAAGCUACUAATT against Ddx3x,inactive: 1.55
2,CUCUGCUUUUUUCCUGUGCTT against D130007C19Rik,inactive: 0.558
3,GGCUUCCUAAGGGAUAAGATT against Slc16a11,inactive: -1.1
4,GGAUGAGUUUCAGAACAGUTT against Ifit2,inactive: -0.263
5,GGGCUAUGUCCACAGCUUUTT against Il27,inactive: -0.475
6,GGUACUGGCAUGGUGACAATT against Mmp11,active: -2.52
7,GGAUGAAGAGAAAGACAAGTT against Zscan21,inactive: 0.809
8,GGAAACCAGAAAGAUCAUGTT against Phkg1,inactive: -0.177
9,GCCAACAGUAACGGUAUUGTT against Patz1,active: -2.04
10,CGGGCUGGAAGAAAUCUCUTT against Rhox3a,inactive: 0.771
11,GCACUUCCGAACAUCUAGCTT against Mau2,inactive: -1.1
12,CGUGUAGACUUUGAGACGUTT against Myl6b,inactive: 0.202
13,GCUCGAACAUAGCAGCAAGTT against BC061195,active: -2.11
14,GGAUCUUAUGCGAAGCCGCTT against Ccdc60,inactive: 0.537
15,GGAAGGGUUUGUUUGUUUATT against Nkiras1,inactive: 1.55
16,GCUUUGCUAAGCCUAAAAGTT against Zbtb44,inactive: -1.12
17,GCAUGACUCUCAGGUCAAGTT against Lman2,inactive: 1.54
18,GGUAUUGACAGGGAUCUGATT against Limk1,inactive: 1.19
19,CCUGCUACCAGAUGAACCATT against Man1b1,inactive: -1.39
20,GGCCAAAGACUUUUGGAAUTT against Rgs1,inactive: 0.72
21,GGAAGCUCUAAAAAGAGUGTT against Olfr23,inactive: -1.14
22,GGAAUUGGUUCAUUUGGUUTT against Unkl,inactive: 0.84

row,Sequence,z-score
1,GCGGUAUGGGAAGCUAAAGTT against Rhbdf1,inactive: 0.617
2,GGAGACACCCGAAAUACAUTT against Adam18,inactive: 1.49
3,CGGAGUUGAAGUCACAUACTT against Il20ra,inactive: -0.13
4,GGCGACACAUUAAAAUAGUTT against Mepe,active: 2.19
5,GGUUAUGAAACUUGGAAAUTT against Cdkn2c,inactive: -0.192
6,GCUGUUCCUCUUUCUUUCUTT against Olfr522,inactive: 0.315
7,GGUAACAAACUACAUUUGCTT against Pcdhb16,active: 2.7
8,GGGAUUGGGUAUUUUUUAGTT against B4galt1,inactive: -0.432
9,CCAUAUCCAAUAAUAGAGATT against Trip12,inactive: 0.972
10,GGAAAUUUUGAACCUGACATT against Setd3,inactive: 0.125
11,GGACUGAUAGAGGACUUCCTT against Bloc1s6,inactive: -0.56
12,CGAUGAAAUGAUAUGCAAATT against Kdm5b,inactive: 0.605
13,GGAUGGUGACAUCAUUCCGTT against Tha1,inactive: -1.43
14,GCCUUGGAUAAACCAGACGTT against Mfsd4a,active: -2.38
15,GGACUUUAAGUGAGAAUCUTT against BC106179,inactive: 0.0661
16,GGACCAACACACAACAUCCTT against Slc25a23,inactive: -0.301
17,GGGACACCCUUUGAAGAUGTT against Ube2b,inactive: -0.314
18,GGAAAGAAUUGGAUGACUATT against Chil6,inactive: 0.775
19,GGACAAGUACCAAGUCAAUTT against Plaat3,inactive: 1.37
20,GGUGGACAUCUUGGACAUUTT against Amn,inactive: 1.85
21,GCCAAAGACGAUUAUCGAATT against Hook3,inactive: -0.299
22,CCCUCUUCUGUAUGCAUCGTT against Olfr262,inactive: -1.14

# Quoted from the listing.
# z-score with GGAUCUUAUGCGAAGCCGCTT against Ccdc60 is entered as inactive: 0.537
# z-score with GGUAUUGACAGGGAUCUGATT against Limk1 is entered as inactive: 1.19
# z-score with GCCAAAGACGAUUAUCGAATT against Hook3 is entered as inactive: -0.299
# z-score with GGUGAACAGAUCGCCAUCATT against Ikbkb is entered as inactive: -0.273

# The listing continues.

row,Sequence,z-score
1,GGCUACAUGAGAAGCACAGTT against Disc1,inactive: 1.64
2,GGUCUAAAACUCUCAUAAUTT against Sfmbt1,inactive: -1.24
3,GGUGCUCCACAACACCUAUTT against 2510039O18Rik,active: 2.05
4,GGAAGAUGAUGAUAAUGAGTT against Cdv3,inactive: -0.317
5,GGAAGAAUGCCACAAGGGATT against Irx6,inactive: 1.71
6,GCUUACCUUGGACAAAUGUTT against Mfsd14a,inactive: -1.17
7,GGGUGCUGAAAUGAAGCAUTT against Osbpl1a,inactive: 0.518
8,GCAAGAACUUCGCUGCUCUTT against Smdt1,inactive: 1.74
9,GGAGAUUGACAUCCUGCCUTT against Pdk4,inactive: 1.71
10,GGCAGUCACUGGCUAAAUGTT against Ugt2a1,active: 2.13
11,UGAUAAGGCAGCCGUAUCCTT against Amelx,inactive: 0.0399
12,GGAAGAAAGUGAAGAAGAGTT against Cdr1os,inactive: -0.387
13,GGUGUGUGCCUUUUAUUUUTT against Gins4,inactive: -0.00195
14,GGUUGUCUUGACACCCUACTT against Tnfrsf1b,active: -2.21
15,GGUGUUCCUUUCACGAACATT against Gpr158,inactive: 0.0128
16,GGUACACCAGGAAUAGACGTT against Prl7a1,inactive: 0.236
17,CGCCAGCAGAACUCAAAUATT against Gm11992,inactive: 0.623
18,GGAAGCAGAGCAGCUGUUUTT against Skiv2l,inactive: -0.567
19,GCAAUUUCCUGUGUUAAUATT against Rab3c,inactive: 0.921
20,GAAAAAUAAUGGAGUUUGGTT against Gtf2h5,inactive: 0.513
21,GGGAUUAUGUGUCAUUUGUTT against Vwa2,inactive: 1.9
22,GGUCUGACAUUACUCAAAUTT against Rad51,inactive: 1.59

row,Sequence,z-score
1,CCACAUUCCUCAUUCUGUATT against Vars2,inactive: -0.622
2,GACUCUAAACCUAGCAGCGTT against Basp1,active: -2.34
3,GGAUGUUUUGAAAUCUCGUTT against Acad11,inactive: 0.955
4,GGAUUUGUUUGCUUAGCUGTT against Ctbp1,inactive: 0.739
5,GGUGAUGGUGAACAAGAAATT against Lgals9,inactive: -0.811
6,GGAUUUUUAUAACCCACUGTT against Cldn9,inactive: -0.644
7,GCUGAAGGGUCUCGUAUUGTT against Hes2,inactive: 0.262
8,GGAGAAGGUUCGAAGAAGCTT against Lysmd3,inactive: 0.248
9,GGCCUGUAUCACUUUUAUCTT against Pcsk2,inactive: -0.36
10,GCCGAUAGCAUAGACAGUGTT against Kansl2,inactive: 0.6
11,CCCACUGAUGCUAUUUCUATT against Rad1,active: -2.57
12,GGACUAAGAUUUGUGUUAGTT against Ccdc127,active: 2.15
13,GGCAUUCCAGAGAAAGCGUTT against F3,inactive: -1.33
14,GCACCCAUAUCAACGAGGUTT against Olfr924,inactive: 0.484
15,GGUACAACAAAUCUUAUCATT against Abca6,inactive: -0.476
16,GGUGGAAUUCAUUUUGACATT against Dnajb6,inactive: -0.42
17,GGAACCUGAUUGACUUGGATT against Tmem63c,inactive: 0.511
18,GCUAUAGCGCGGAAAUGGATT against Dclk3,inactive: -0.531
19,GGACAAGCUGCAUCUGUUUTT against Rgma,inactive: -1.26

# From PubChem BioAssay AID1508600 (Functional Genomics Laboratory (NCATS/FGL), 2020)
